Experimental findings from article doi:10.1101/862649 are described below.

No constants are given. Whether binding was seen depends on the method and setting. Sequences can lack the tags named with a protein.

The target of this test is T1, PHOT1 C (kinase domain of PHOT1), GAL4 DNA-binding domain fusion (Arabidopsis thaliana) (UniProt O48963).
T1 sequence: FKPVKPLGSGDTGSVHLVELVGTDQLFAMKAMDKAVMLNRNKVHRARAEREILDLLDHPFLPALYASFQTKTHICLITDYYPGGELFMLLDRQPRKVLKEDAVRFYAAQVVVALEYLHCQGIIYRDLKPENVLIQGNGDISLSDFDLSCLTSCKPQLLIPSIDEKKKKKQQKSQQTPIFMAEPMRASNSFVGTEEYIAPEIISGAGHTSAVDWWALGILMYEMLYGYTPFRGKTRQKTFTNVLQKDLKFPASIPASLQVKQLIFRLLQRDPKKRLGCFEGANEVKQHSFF
Put plainly: two-hybrid.

For “N-terminal half of RPT2 (RPT2 N), GAL4 transcription-activating domain fusion (Arabidopsis thaliana) (domain or fragment)”, the binding result is recorded as “no binding”.
